In PMC3551926, “Dact2 Represses PITX2 Transcriptional Activation and Cell Proliferation through Wnt/beta-Catenin Signaling during Odontogenesis” (PLoS ONE, 2013):
These are yes or no findings as the source states them, for the method shown. Binding calls can cover weak binding; strength is not graded here. For some of these results: In cells and extracts the contact can be indirect.

Legend:
[1] = target: Pitx2 (endogenous, LS-8 oral epithelial cells) (mouse (endogenous in LS-8)) (UniProt P97474); test: co-IP; endogenous proteins of LS-8 whole cell lysate; precleared; immunoprecipitation with rabbit Pitx2 antibody and protein A/G-agarose at 4°C overnight; Western blot with anti-Dact2; normal rabbit IgG as control
[2] = target: GST-PITX2A-FL (full length) (UniProt Q99697); test: pull-down; GST-PITX2A fusion proteins (10–30 μg) immobilized on Glutathione-Sepharose beads; purified Dact2 added; 20 mM HEPES pH 7.5, 5% glycerol, 50 mM NaCl, 1 mM EDTA, 1 mM DTT, 1% milk, 400 μg/ml ethidium bromide; 30 min at 4°C; Dact2 detected by immunoblot; both purified
[3] = target: GST-PITX2A-HD (homeodomain); test: as above
[4] = target: GST-PITX2A-NΔ38; test: as above

binding [1] | binding [2] | binding [3] | binding [4] | Binder
binds | – | – | – | Dact2 (endogenous, LS-8 oral epithelial cells) (protein, UniProt Q7TN08 1-757) MWAPSGQGPAGWDRRRVGARLRAALAGLQELQGLRATQQARVRGALGLHPAPGPRGQELRLEAALTALREQLSRLRRQDAGLKTHLDQLDQQISELQLDVSRSSCEALDSDSRPSSGFYELSDAGSCSLSTSCASVCSDRLSPSLGSWLPVFQPSKSRSGIGDWRPRSADETTVPAWSPQLTEDSRLLHGAEGTGRLTGMFRPRPVSTGDLERVLPADVGLQRAGTDAAHLLGQGIEIPAHALDPTYQRDLVARGGQEVYPYPSPLHAVALQSPLFALPKEAPCFDICSPPQEPPLVPVDENRTQPEPIRELGSAEAYIHRLLHLRGQELPLRDVGQEQGGDTAAFPPKPCGQRSESTCQLEKQACGADRGGLKLGRGAAKDSLKQHGPVSLVGAEPLSSPLKEETIPWNPCVHGDNTVGSSPCSQAQQPLNDCGQGPVLSPSRVLGTESPPLAPEPFAYTSCTTGETSPVKLRMGFSQNKAVKVRRRVSEKVPRLGKQLPPQPERQRVTERDPSRPHQGGLSRRPTLAREPPGRSCSESTLYPVPFLVPVVVAQRESYPTSPQAFFPMEAALLSSAARRKQRRWQSTMEISAKAGSVSQPGPSMGLPRSPAKRGSGPRAQSRPTLARQDACARCESDPSEHSADCTSLYHSTIAETSEDEEASDHTANRFGDESSSNDSEGCFRGSRRRLAIGSAEAGQGGWAWPRVPPQQPSRAPGNTRPPLPPVPKLCRIKASKALKKKIRRFQPAALKVMTMV
– | binds | binds | binds | Dact2, purified bacterially expressed protein (natural protein, mouse, UniProt Q7TN08 1-757, looked up) MWAPSGQGPAGWDRRRVGARLRAALAGLQELQGLRATQQARVRGALGLHPAPGPRGQELRLEAALTALREQLSRLRRQDAGLKTHLDQLDQQISELQLDVSRSSCEALDSDSRPSSGFYELSDAGSCSLSTSCASVCSDRLSPSLGSWLPVFQPSKSRSGIGDWRPRSADETTVPAWSPQLTEDSRLLHGAEGTGRLTGMFRPRPVSTGDLERVLPADVGLQRAGTDAAHLLGQGIEIPAHALDPTYQRDLVARGGQEVYPYPSPLHAVALQSPLFALPKEAPCFDICSPPQEPPLVPVDENRTQPEPIRELGSAEAYIHRLLHLRGQELPLRDVGQEQGGDTAAFPPKPCGQRSESTCQLEKQACGADRGGLKLGRGAAKDSLKQHGPVSLVGAEPLSSPLKEETIPWNPCVHGDNTVGSSPCSQAQQPLNDCGQGPVLSPSRVLGTESPPLAPEPFAYTSCTTGETSPVKLRMGFSQNKAVKVRRRVSEKVPRLGKQLPPQPERQRVTERDPSRPHQGGLSRRPTLAREPPGRSCSESTLYPVPFLVPVVVAQRESYPTSPQAFFPMEAALLSSAARRKQRRWQSTMEISAKAGSVSQPGPSMGLPRSPAKRGSGPRAQSRPTLARQDACARCESDPSEHSADCTSLYHSTIAETSEDEEASDHTANRFGDESSSNDSEGCFRGSRRRLAIGSAEAGQGGWAWPRVPPQQPSRAPGNTRPPLPPVPKLCRIKASKALKKKIRRFQPAALKVMTMV
